According to the supplement of paper PMC12067093, “Discovery and optimisation of a covalent ligand for TRIM25 and its application to targeted protein ubiquitination” (Chemical Science, 2025):
The list shows a part of the results.

Protein sequences, listed by entry. Tags and fused reporters are not part of them. Lines headed by an entry give the natural chain unless they say otherwise; changes in a name come on top.
UniProt Q96DX4: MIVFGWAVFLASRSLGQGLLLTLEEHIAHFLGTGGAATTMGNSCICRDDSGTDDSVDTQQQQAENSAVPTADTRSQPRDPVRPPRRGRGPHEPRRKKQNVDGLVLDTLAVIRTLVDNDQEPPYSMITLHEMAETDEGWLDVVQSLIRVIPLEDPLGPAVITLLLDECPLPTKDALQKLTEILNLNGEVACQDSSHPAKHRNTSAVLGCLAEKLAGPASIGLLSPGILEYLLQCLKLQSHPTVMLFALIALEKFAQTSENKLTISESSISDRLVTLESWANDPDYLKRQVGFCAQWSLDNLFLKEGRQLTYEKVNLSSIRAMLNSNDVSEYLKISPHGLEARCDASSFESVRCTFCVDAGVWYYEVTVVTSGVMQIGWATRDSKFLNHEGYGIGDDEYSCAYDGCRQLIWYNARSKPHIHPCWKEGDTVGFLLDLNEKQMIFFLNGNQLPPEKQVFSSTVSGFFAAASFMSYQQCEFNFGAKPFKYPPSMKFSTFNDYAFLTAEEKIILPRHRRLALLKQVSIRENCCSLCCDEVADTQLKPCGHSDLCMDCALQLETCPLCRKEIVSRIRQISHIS
UniProt Q9Y3I0: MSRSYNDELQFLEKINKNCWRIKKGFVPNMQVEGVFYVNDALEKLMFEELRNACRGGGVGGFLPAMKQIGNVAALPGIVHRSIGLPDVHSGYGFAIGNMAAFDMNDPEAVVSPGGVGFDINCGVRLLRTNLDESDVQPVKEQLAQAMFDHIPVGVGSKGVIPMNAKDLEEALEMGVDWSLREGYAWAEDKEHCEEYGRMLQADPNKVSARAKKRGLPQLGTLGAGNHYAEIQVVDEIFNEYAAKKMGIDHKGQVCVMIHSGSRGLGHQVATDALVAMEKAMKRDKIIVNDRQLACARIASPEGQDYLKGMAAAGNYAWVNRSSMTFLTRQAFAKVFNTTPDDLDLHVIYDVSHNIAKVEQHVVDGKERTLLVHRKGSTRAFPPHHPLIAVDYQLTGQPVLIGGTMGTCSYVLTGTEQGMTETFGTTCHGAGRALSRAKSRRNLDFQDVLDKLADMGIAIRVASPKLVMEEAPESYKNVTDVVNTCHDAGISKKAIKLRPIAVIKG
UniProt Q5JTH9: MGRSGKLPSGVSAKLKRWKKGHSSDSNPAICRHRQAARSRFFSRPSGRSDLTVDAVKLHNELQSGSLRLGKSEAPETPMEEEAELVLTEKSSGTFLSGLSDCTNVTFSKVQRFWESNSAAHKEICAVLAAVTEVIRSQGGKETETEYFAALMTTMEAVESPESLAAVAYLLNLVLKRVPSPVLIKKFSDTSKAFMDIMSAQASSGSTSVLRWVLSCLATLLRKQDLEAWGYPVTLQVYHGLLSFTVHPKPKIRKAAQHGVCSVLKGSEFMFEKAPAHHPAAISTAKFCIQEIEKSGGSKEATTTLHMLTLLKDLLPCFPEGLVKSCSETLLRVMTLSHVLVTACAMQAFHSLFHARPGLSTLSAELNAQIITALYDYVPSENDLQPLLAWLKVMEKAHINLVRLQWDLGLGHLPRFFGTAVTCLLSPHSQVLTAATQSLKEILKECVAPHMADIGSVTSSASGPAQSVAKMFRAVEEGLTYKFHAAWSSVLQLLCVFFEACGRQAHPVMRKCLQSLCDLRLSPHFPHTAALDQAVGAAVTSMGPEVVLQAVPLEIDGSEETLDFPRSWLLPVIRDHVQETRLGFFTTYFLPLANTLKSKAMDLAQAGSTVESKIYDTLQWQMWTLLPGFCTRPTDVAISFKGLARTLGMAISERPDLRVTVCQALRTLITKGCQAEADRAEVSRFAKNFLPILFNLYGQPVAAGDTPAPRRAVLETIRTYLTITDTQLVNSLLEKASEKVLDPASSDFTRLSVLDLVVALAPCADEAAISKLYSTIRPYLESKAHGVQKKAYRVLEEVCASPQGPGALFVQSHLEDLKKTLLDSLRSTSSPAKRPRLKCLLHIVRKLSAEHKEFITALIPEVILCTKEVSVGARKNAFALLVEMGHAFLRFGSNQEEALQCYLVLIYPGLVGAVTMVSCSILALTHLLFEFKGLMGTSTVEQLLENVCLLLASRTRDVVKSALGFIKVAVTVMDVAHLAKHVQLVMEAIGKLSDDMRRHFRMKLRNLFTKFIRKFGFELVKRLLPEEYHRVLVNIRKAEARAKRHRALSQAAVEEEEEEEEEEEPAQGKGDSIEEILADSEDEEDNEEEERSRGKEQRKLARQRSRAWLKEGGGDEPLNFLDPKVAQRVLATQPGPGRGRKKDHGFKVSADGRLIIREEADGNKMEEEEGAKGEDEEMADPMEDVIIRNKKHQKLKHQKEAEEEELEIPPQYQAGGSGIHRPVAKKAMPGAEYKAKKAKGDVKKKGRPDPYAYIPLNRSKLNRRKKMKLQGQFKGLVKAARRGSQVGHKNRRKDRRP
UniProt P31949: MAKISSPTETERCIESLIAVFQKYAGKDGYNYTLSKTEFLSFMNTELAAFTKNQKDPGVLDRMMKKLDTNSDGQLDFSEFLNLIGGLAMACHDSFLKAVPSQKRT
UniProt Q5K651: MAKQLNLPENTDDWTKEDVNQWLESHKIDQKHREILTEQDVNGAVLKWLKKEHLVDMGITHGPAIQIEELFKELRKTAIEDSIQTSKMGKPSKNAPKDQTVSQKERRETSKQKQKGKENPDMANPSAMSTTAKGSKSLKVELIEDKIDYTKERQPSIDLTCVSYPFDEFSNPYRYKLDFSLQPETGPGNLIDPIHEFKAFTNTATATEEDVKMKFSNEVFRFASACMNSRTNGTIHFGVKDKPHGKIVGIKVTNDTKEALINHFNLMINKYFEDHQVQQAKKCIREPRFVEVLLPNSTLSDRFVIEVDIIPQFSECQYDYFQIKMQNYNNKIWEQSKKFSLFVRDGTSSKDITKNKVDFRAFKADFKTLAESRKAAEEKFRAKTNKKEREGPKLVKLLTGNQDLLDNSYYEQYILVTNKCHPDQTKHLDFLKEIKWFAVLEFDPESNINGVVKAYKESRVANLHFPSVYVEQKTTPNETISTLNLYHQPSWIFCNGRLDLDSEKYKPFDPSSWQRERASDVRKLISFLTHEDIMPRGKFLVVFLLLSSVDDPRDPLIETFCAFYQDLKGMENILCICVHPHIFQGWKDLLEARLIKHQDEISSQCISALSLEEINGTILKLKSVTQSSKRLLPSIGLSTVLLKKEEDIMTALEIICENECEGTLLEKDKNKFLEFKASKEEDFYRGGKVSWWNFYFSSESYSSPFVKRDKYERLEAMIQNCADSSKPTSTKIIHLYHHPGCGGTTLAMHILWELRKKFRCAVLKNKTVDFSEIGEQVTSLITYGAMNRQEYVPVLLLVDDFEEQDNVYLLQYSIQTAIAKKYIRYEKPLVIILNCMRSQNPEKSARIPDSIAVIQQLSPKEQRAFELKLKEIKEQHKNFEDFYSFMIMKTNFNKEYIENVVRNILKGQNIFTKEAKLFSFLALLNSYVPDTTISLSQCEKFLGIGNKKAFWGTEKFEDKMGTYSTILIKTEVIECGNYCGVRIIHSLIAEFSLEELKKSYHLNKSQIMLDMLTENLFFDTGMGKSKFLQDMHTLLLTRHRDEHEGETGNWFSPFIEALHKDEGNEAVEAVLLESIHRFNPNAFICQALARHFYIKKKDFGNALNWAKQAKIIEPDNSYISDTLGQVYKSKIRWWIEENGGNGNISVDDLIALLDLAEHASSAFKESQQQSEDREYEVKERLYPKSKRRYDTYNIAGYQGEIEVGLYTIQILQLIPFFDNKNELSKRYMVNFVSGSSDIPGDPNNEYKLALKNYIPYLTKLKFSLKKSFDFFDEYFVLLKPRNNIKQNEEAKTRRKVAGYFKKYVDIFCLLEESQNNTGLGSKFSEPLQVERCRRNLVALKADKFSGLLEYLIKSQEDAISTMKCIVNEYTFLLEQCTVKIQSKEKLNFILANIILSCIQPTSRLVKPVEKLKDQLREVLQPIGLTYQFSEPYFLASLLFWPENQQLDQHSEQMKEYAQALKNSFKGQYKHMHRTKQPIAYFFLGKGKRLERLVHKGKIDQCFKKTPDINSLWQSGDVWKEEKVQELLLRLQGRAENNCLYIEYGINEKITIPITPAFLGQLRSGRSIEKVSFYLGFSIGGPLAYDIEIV
UniProt Q5VWQ0: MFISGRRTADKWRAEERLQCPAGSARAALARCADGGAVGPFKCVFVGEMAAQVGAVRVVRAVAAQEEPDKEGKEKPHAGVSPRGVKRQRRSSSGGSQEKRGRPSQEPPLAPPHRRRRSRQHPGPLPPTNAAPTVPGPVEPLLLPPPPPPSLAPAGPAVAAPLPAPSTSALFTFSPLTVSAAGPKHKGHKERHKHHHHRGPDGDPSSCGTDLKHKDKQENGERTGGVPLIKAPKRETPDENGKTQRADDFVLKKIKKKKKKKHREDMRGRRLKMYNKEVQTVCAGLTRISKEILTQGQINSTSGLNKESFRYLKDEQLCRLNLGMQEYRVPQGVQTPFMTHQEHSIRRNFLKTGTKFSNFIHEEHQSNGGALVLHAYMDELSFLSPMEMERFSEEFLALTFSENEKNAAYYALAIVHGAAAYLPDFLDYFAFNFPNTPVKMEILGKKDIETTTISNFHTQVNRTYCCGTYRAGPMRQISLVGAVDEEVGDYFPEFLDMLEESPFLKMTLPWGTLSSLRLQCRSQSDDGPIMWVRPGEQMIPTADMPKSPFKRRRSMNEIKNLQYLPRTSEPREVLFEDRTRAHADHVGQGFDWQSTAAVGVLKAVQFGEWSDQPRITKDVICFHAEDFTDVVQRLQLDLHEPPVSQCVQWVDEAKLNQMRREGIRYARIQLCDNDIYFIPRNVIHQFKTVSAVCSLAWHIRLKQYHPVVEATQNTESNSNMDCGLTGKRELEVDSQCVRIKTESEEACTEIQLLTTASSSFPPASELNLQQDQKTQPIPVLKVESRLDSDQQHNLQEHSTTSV
UniProt Q96T51: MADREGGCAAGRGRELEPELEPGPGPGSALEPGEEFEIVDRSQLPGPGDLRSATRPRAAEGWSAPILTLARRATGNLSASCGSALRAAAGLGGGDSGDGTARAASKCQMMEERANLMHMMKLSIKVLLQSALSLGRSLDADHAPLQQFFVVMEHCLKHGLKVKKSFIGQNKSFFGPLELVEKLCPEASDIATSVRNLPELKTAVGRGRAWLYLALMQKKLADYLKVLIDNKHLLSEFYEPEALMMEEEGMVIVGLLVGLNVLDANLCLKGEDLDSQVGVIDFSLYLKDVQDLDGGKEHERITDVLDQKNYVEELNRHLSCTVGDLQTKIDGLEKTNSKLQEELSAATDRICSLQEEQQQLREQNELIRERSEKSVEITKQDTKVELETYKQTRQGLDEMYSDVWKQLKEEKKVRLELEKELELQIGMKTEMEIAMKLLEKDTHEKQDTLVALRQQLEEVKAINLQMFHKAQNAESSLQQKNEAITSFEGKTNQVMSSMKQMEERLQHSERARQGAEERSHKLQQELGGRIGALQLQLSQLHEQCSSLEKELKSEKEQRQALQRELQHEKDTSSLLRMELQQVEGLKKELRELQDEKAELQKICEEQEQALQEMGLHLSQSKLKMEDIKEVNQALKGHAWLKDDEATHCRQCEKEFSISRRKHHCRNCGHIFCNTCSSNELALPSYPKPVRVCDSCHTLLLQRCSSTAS
UniProt Q9Y265, whole entry, looked up: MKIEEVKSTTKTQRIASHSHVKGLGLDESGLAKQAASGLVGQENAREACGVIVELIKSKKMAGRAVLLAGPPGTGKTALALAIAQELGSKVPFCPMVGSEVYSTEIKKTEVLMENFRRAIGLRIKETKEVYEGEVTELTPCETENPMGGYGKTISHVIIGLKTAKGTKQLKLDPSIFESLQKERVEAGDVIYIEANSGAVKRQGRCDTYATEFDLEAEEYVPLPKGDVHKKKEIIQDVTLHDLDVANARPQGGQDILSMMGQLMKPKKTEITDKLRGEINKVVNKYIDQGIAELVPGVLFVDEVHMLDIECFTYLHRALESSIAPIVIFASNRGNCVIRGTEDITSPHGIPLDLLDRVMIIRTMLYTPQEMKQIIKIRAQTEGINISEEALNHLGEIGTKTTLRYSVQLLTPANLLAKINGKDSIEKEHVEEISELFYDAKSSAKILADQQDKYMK
UniProt Q8IZ73: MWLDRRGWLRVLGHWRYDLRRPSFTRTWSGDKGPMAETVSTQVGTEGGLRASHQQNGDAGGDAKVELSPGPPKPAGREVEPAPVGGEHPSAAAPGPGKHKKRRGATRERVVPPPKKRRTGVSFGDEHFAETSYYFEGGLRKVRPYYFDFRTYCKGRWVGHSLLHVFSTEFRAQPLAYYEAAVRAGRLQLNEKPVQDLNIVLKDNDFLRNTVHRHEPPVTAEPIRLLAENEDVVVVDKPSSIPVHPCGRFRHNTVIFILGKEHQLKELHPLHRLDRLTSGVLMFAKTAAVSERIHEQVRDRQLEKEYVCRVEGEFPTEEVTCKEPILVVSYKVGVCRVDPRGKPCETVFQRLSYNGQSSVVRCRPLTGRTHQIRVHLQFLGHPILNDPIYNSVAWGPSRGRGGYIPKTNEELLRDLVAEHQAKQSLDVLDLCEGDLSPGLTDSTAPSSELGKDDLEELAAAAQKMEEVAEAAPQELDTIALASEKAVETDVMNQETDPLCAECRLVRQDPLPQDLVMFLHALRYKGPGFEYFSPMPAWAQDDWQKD

Compound: CC1Cc2ccccc2N1C(=O)C1CCCN(C1)C(=O)CCl (mixture of isomers) [TRIM25 ligand 11 (diastereomer mixture)]
Experiment: probe-labelled cysteine peptide fold change vs DMSO (competition) (log2 fold change); higher = less target engagement (more negative = stronger competition)
Settings: THP-1, incubation time: 4 h
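Note: competitive chemoproteomic profiling in live THP-1 cells with an iodoacetamide desthiobiotin (IA-DTB) probe, comparing probe-labelled peptide intensities in compound-treated cells against DMSO-treated controls.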

Row | Target | probe-labelled cysteine peptide fold change (10 µM) | probe-labelled cysteine peptide fold change (50 µM)
1 | RSPRY1_Q96DX4_399_FLNHEGYGIGDDEYSCAYDGCR (UniProt Q96DX4) | -0.0549 | -0.231
2 | RPS8_P62241_71+72_LDVGNFSWGSECCTR (UniProt P62241) | -0.045 | -0.0577
3 | RPS3A_P61247_111_MCSMVK (UniProt P61247) | -0.0252 | -0.0372
4 | RRM1_P23921_787_NTAAMVCSLENRDECLMCGS (UniProt P23921) | -0.255 | -0.3
5 | RTCB_Q9Y3I0_485_NVTDVVNTCHDAGISK (UniProt Q9Y3I0) | -0.0281 | -0.0777
6 | RRP12_Q5JTH9_799_VLEEVCASPQGPGALFVQSHLEDLK (UniProt Q5JTH9) | 0.00703 | 0.135
7 | S100A11_P31949_13_CIESLIAVFQK (UniProt P31949) | -0.234 | -0.445
8 | RPS12_P25398_56_RQAHLCVLASNCDEPMYVK (UniProt P25398) | 0.0283 | -0.228
9 | RTN4IP1_Q8WWV3_130_DVSGVVMECGLDVK (UniProt Q8WWV3) | 0.0727 | 0.161
10 | RSPRY1_Q96DX4_190_LTEILNLNGEVACQDSSHPAK (UniProt Q96DX4) | -0.258 | -0.129
11 | RPS4X_P62701_181_FDTGNLCMVTGGANLGR (UniProt P62701) | -0.102 | -0.0405
12 | RRM1_P23921_218_WFTHASPTLFNAGTNRPQLSSCFLLSMKDDSIEGIYDTLK (UniProt P23921) | 0.111 | 0.0345
13 | SAMD9_Q5K651_975+979_TEVIECGNYCGVR (UniProt Q5K651) | 0.388 | 0.22
14 | RTF1_Q92541_373_WCHMPFFAK (UniProt Q92541) | -0.0618 | -0.0222
15 | RPS27A_P62979_121_RECPSDECGAGVFMASHFDR (UniProt P62979) | 0.0261 | -0.0993
16 | RSBN1_Q5VWQ0_318_DEQLCR (UniProt Q5VWQ0) | -0.0657 | -0.214
17 | RPS6_P62753_83_GHSCYRPR (UniProt P62753) | -0.0363 | 0.0302
18 | RPS27A_P62979_121_ECPSDECGAGVFMASHFDR (UniProt P62979) | -0.176 | -0.142
19 | RPS3A_P61247_139_LFCVGFTK (UniProt P61247) | 0.00349 | 0.037
20 | RUFY1_Q96T51_648_DDEATHCR (UniProt Q96T51) | -0.352 | -0.214
21 | RUVBL1_Q9Y265_94_VPFCPMVGSEVYSTEIK (UniProt Q9Y265) | 0.0537 | -0.0791
22 | RPP40_O75818_235_DLQCPVLQSSELEGTPEVSCR (UniProt O75818) | 0.892 | 0.729

Row | Target | probe-labelled cysteine peptide fold change (10 µM) | probe-labelled cysteine peptide fold change (50 µM)
23 | RPS12_P25398_108_KVVGCSCVVVK (UniProt P25398) | -0.2 | -0.106
24 | RRM1_P23921_254_SAGGIGVAVSCIR (UniProt P23921) | 0.174 | 0.188
25 | SAE1_Q9UBE0_303_YCFSEMAPVCAVVGGILAQEIVK (UniProt Q9UBE0) | -0.0632 | -0.0869
26 | SAMD9_Q5K651_605_HQDEISSQCISALSLEEINGTILK (UniProt Q5K651) | -0.00788 | 0.0545
27 | RRM1_P23921_26_LCYGLNMDFVDPAQITMK (UniProt P23921) | 0.0146 | -0.241
28 | RPS17_P08708_35_VCEEIAIIPSKK (UniProt P08708) | -0.257 | -0.162
29 | RPS2_P15880_188_CGSVLVR (UniProt P15880) | -0.15 | -0.112
30 | RXRB_P28702_241_DLTYSCR (UniProt P28702) | -0.165 | 0.0469
31 | RPS12_P25398_92_KLGEWVGLCK (UniProt P25398) | -0.0286 | -0.162
32 | RPP38_P78345_80_CSIAVDISENLK (UniProt P78345) | -0.0368 | -0.142
33 | RRP12_Q5JTH9_673_GCQAEADRAEVSR (UniProt Q5JTH9) | 0.0652 | -0.00566
34 | RUVBL1_Q9Y265_141_EVYEGEVTELTPCETENPMGGYGK (UniProt Q9Y265) | -0.0541 | -0.104
35 | RPS4Y1_P22090_181_FDTGNLCMVIGGANLGR (UniProt P22090) | -0.0672 | 0.0167
36 | SAAL1_Q96ER3_144_NLGQVLLHCLYDSDPPTLLETSR (UniProt Q96ER3) | -0.0603 | -0.0865
37 | RSBN1_Q5VWQ0_282_EVQTVCAGLTR (UniProt Q5VWQ0) | 0.00457 | -0.119
38 | RPS27A_P62979_121+126_ECPSDECGAGVFMASHFDR (UniProt P62979) | -0.115 | -0.275
39 | RPUSD2_Q8IZ73_246_LLAENEDVVVVDKPSSIPVHPCGR (UniProt Q8IZ73) | -0.089 | -0.225
40 | RSF1_Q96T23_1436_VTDLVDYVCNSEQL (UniProt Q96T23) | -0.41 | 0.00596
41 | RPS12_P25398_50+56_RQAHLCVLASNCDEPMYVK (UniProt P25398) | -0.431 | -0.172
42 | RTFDC1_Q9BY42_121_FICPVVGLEMNGR (UniProt Q9BY42) | 0.0986 | -0.0821
43 | RSF1_Q96T23_562_TALSSTESCTMKGEEK (UniProt Q96T23) | -0.216 | -0.493

Shown as labelled records: part of the list above
RRM1_P23921_787_NTAAMVCSLENRDECLMCGS (UniProt P23921)
  probe-labelled cysteine peptide fold change (10 µM): -0.255; probe-labelled cysteine peptide fold change (50 µM): -0.3
RTCB_Q9Y3I0_485_NVTDVVNTCHDAGISK (UniProt Q9Y3I0)
  probe-labelled cysteine peptide fold change (10 µM): -0.0281; probe-labelled cysteine peptide fold change (50 µM): -0.0777
